PubChem BioAssay AID1159584 | Peter MacCallum Cancer Centre | 2016

Aim: 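Knock-downs that harm CDH1-null cells more than parental MCF10A cells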 (primary screen)
Cell system: human MCF10A breast epithelial cells, parental and CDH1-null
Knock-down reagent: siRNA against human genes
Measured: 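ATP luminescence (CellTiter-Glo) viability per line relative to mean mock wells over all plates, and the ratio of CDH1-null to parental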
Scale: CDH1-null / parental viability ratio: higher = CDH1-null cells survive relatively better than parental; CDH1-null viability vs mock: higher = more viable CDH1-null cells; parental viability vs mock: higher = more viable parental cells
The deposit covers about 18,000 reagents; this is an unselected part. No sequences are given here. Not stated in the record: the amount of reagent, the time to read-out.

gene | CDH1-null / parental viability ratio | CDH1-null viability vs mock (fraction of mock) | parental viability vs mock (fraction of mock)
VGLL4 (vestigial like family member 4) | 1.12 | 0.86 | 0.77
ECSCR | 1.34 | 1.06 | 0.79
CCDC24 (coiled-coil domain containing 24) | 0.82 | 0.67 | 0.82
APOA2 (apolipoprotein A2) | 1.12 | 0.57 | 0.51
PPP2R2C (protein phosphatase 2 regulatory subunit Bgamma) | 1.58 | 1.04 | 0.66
PLAAT4 (phospholipase A and acyltransferase 4) | 0.97 | 1.01 | 1.04
SH3BP5L (SH3 binding domain protein 5 like) | 1.27 | 0.76 | 0.6
INTS7 (integrator complex subunit 7) | 0.93 | 0.63 | 0.68
CIAO1 (cytosolic iron-sulfur assembly component 1) | 0.93 | 0.84 | 0.9
RALBP1 (ralA binding protein 1) | 1.08 | 0.66 | 0.61
TRPC7 | 1.19 | 0.88 | 0.74
EIF4A3 (eukaryotic translation initiation factor 4A3) | 1.15 | 0.15 | 0.13
TAS2R9 (taste 2 receptor member 9) | 1.14 | 0.5 | 0.44
CLDND1 (claudin domain containing 1) | 1.21 | 0.58 | 0.48
MLYCD (malonyl-CoA decarboxylase) | 0.97 | 0.72 | 0.74
USE1 (unconventional SNARE in the ER 1) | 0.92 | 0.74 | 0.8
SYN3 (synapsin III) | 1.22 | 0.9 | 0.74
GAST (gastrin) | 0.95 | 0.84 | 0.88
ODAD3 (outer dynein arm docking complex subunit 3) | 0.88 | 0.6 | 0.68
PCDHB2 (protocadherin beta 2) | 1.07 | 0.92 | 0.86
GNG11 (G protein subunit gamma 11) | 0.97 | 0.9 | 0.93
CIMIP2A (ciliary microtubule inner protein 2A) | 0.88 | 0.56 | 0.64
CA3 (carbonic anhydrase 3) | 1.16 | 0.81 | 0.7
OR52H1 (olfactory receptor family 52 subfamily H member 1) | 1.31 | 0.68 | 0.52
DAPK1 (death associated protein kinase 1) | 1.16 | 1 | 0.86
LARP4B (La ribonucleoprotein 4B) | 0.98 | 0.9 | 0.92
CD28 (CD28 molecule) | 1.03 | 0.68 | 0.66
MYO9B (myosin IXB) | 1.15 | 0.84 | 0.73
